No constants are given. Whether binding was seen depends on the method and setting. In cells and extracts the contact can be indirect. Some results given as binding are weak or reduced against the parent protein; the word gives no strength.
Biological target: Toll-like receptor 4 (TLR4), the LPS receptor (human (endogenous in primary monocytes)) (UniProt O00206)
Assay: FRET or BRET; acceptor photobleaching FRET between antibody labels on human monocytes treated with or without LPS (2 ng/ml, 15 min), fixed; donor Alexa-488 streptavidin on biotin anti-TLR4 HTA-125 mAb, acceptor Alexa-568 goat anti-mouse IgG on MEM148 or CBRM1/5 mAb; Leica TCS SP5 confocal …

Chains of the proteins cited; added tags and fusions are not shown. Residues count along the entry.
UniProt O00206, residues 24-839: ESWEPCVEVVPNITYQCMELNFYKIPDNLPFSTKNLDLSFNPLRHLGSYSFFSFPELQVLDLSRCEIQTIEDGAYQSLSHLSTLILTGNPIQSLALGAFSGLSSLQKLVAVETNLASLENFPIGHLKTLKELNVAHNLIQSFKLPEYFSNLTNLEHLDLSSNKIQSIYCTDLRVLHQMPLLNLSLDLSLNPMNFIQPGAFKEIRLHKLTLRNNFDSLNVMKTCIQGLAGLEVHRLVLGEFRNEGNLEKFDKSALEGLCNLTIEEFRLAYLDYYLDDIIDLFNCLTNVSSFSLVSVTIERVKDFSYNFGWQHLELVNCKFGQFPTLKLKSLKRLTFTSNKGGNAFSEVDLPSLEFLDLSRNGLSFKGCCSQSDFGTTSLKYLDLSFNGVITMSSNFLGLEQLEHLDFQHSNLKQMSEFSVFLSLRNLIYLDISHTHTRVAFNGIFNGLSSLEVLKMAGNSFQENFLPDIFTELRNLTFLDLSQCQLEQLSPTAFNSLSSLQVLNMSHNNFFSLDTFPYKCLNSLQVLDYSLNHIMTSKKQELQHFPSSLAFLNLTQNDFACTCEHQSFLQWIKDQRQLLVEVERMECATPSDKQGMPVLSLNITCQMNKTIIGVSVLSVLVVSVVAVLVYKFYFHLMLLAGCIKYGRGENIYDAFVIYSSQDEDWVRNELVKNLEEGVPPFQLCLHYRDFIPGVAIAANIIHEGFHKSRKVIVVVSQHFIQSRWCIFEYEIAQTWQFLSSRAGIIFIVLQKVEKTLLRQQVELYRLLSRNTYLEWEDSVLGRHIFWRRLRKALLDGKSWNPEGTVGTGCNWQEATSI

binding: binds
Substance: activated β2 integrin (CD18) (from UniProt P05107 23-769) (receptor)

Source: paper PMC3276499
